{
  "source": "patent US20230029496A1",
  "about": "“AMINO ACID ALTERNATIVE CURING SYSTEM” (THE TEXAS A&M UNIVERSITY SYSTEM, priority 2019, published 2023)",
  "key": {"[1]": {"test_system": "aerobic mesophiles, aerobic psychrotrophs"}, "[2]": {"experiment": "Percent solution pickup, pre-rigor pork semimembranosus muscle (first study)", "details": "range across all treatments (0 mM-32 mM), raw and cooked"}, "[3]": {"experiment": "Percent solution pickup, pre- and post-rigor pork semimembranosus muscle (Example 13)"}},
  "note": "Like-named read-outs stand apart in the source and are kept apart here. Marks after values point to notes of the source that are not given here.",
  "data": [
    {"smiles": "N=C(N)NCCC[C@H](N)C(=O)O", "note": "[L-arginine]", "values": [
      {"measurement": "aerobic plate count (APC)", "setting": "[1]; 3000 ppm L-arginine, Day 1", "value": "3.29 Log/Colony Forming Units (CFU)/g"},
      {"measurement": "aerobic plate count (APC)", "setting": "[1]; 3000 ppm L-arginine, Day 7", "value": "3.37 Log/Colony Forming Units (CFU)/g"},
      {"measurement": "aerobic plate count (APC)", "setting": "[1]; 3000 ppm L-arginine, Day 14", "value": "3.54 Log/Colony Forming Units (CFU)/g"},
      {"measurement": "aerobic plate count (APC)", "setting": "[1]; 3000 ppm L-arginine, Day 28", "value": "4.78 Log/Colony Forming Units (CFU)/g"},
      {"measurement": "aerobic plate count (APC)", "setting": "[1]; 4000 ppm L-arginine, Day 1", "value": "2.84 Log/Colony Forming Units (CFU)/g"},
      {"measurement": "aerobic plate count (APC)", "setting": "[1]; 4000 ppm L-arginine, Day 7", "value": "3.57 Log/Colony Forming Units (CFU)/g"},
      {"measurement": "aerobic plate count (APC)", "setting": "[1]; 4000 ppm L-arginine, Day 14", "value": "3.36 Log/Colony Forming Units (CFU)/g"},
      {"measurement": "aerobic plate count (APC)", "setting": "[1]; 4000 ppm L-arginine, Day 28", "value": "5.68 Log/Colony Forming Units (CFU)/g"},
      {"measurement": "aerobic plate count (APC)", "setting": "[1]; 5000 ppm L-arginine, Day 1", "value": "2.93 Log/Colony Forming Units (CFU)/g"},
      {"measurement": "aerobic plate count (APC)", "setting": "[1]; 5000 ppm L-arginine, Day 7", "value": "3.39 Log/Colony Forming Units (CFU)/g"},
      {"measurement": "aerobic plate count (APC)", "setting": "[1]; 5000 ppm L-arginine, Day 14", "value": "3.46 Log/Colony Forming Units (CFU)/g"},
      {"measurement": "aerobic plate count (APC)", "setting": "[1]; 5000 ppm L-arginine, Day 28", "value": "3.81 Log/Colony Forming Units (CFU)/g"},
      {"measurement": "pickup percentages", "setting": "[2]", "value": "24.38-28.09%"},
      {"measurement": "Sample Pickup", "setting": "[3]; 2 mM L-arginine, post rigor cooked", "value": "20.59^a %"},
      {"measurement": "Sample Pickup", "setting": "[3]; 2 mM L-arginine, post rigor raw", "value": "29.10^a %"},
      {"measurement": "Sample Pickup", "setting": "[3]; 2 mM L-arginine, pre-rigor cooked", "value": "26.75^a %"},
      {"measurement": "Sample Pickup", "setting": "[3]; 2 mM L-arginine, pre-rigor raw", "value": "22.99^a %"},
      {"measurement": "Sample Pickup", "setting": "[3]; 4 mM L-arginine, post rigor cooked", "value": "21.81^a %"},
      {"measurement": "Sample Pickup", "setting": "[3]; 4 mM L-arginine, post rigor raw", "value": "28.22^a %"},
      {"measurement": "Sample Pickup", "setting": "[3]; 4 mM L-arginine, pre-rigor cooked", "value": "27.46^a %"},
      {"measurement": "Sample Pickup", "setting": "[3]; 4 mM L-arginine, pre-rigor raw", "value": "24.21^a %"},
      {"measurement": "Sample Pickup", "setting": "[3]; 8 mM L-arginine, post rigor cooked", "value": "21.60^a %"},
      {"measurement": "Sample Pickup", "setting": "[3]; 8 mM L-arginine, post rigor raw", "value": "28.37^a %"},
      {"measurement": "Sample Pickup", "setting": "[3]; 8 mM L-arginine, pre-rigor cooked", "value": "25.56^a %"},
      {"measurement": "Sample Pickup", "setting": "[3]; 8 mM L-arginine, pre-rigor raw", "value": "20.99^a %"},
      {"measurement": "Sample Pickup", "setting": "[3]; 16 mM L-arginine, post rigor cooked", "value": "21.17^a %"},
      {"measurement": "Sample Pickup", "setting": "[3]; 16 mM L-arginine, post rigor raw", "value": "28.29^a %"},
      {"measurement": "Sample Pickup", "setting": "[3]; 16 mM L-arginine, pre-rigor cooked", "value": "29.33^a %"},
      {"measurement": "Sample Pickup", "setting": "[3]; 16 mM L-arginine, pre-rigor raw", "value": "23.04^a %"},
      {"measurement": "Sample Pickup", "setting": "[3]; 32 mM L-arginine, post rigor cooked", "value": "21.64^a %"},
      {"measurement": "Sample Pickup", "setting": "[3]; 32 mM L-arginine, post rigor raw", "value": "28.18^a %"},
      {"measurement": "Sample Pickup", "setting": "[3]; 32 mM L-arginine, pre-rigor cooked", "value": "26.55^a %"},
      {"measurement": "Sample Pickup", "setting": "[3]; 32 mM L-arginine, pre-rigor raw", "value": "24.84^a %"},
      {"measurement": "TBA values (indicator of lipid oxidation)", "setting": "3000 ppm L-arginine, Day 1", "value": 0.540},
      {"measurement": "TBA values (indicator of lipid oxidation)", "setting": "3000 ppm L-arginine, Day 7", "value": 1.000},
      {"measurement": "TBA values (indicator of lipid oxidation)", "setting": "3000 ppm L-arginine, Day 14", "value": 1.056},
      {"measurement": "TBA values (indicator of lipid oxidation)", "setting": "3000 ppm L-arginine, Day 28", "value": 1.158},
      {"measurement": "TBA values (indicator of lipid oxidation)", "setting": "4000 ppm L-arginine, Day 1", "value": 0.577},
      {"measurement": "TBA values (indicator of lipid oxidation)", "setting": "4000 ppm L-arginine, Day 7", "value": 0.745},
      {"measurement": "TBA values (indicator of lipid oxidation)", "setting": "4000 ppm L-arginine, Day 14", "value": 0.839},
      {"measurement": "TBA values (indicator of lipid oxidation)", "setting": "4000 ppm L-arginine, Day 28", "value": 0.718},
      {"measurement": "TBA values (indicator of lipid oxidation)", "setting": "5000 ppm L-arginine, Day 1", "value": 0.501},
      {"measurement": "TBA values (indicator of lipid oxidation)", "setting": "5000 ppm L-arginine, Day 7", "value": 0.773},
      {"measurement": "TBA values (indicator of lipid oxidation)", "setting": "5000 ppm L-arginine, Day 14", "value": 0.854},
      {"measurement": "TBA values (indicator of lipid oxidation)", "setting": "5000 ppm L-arginine, Day 28", "value": 0.894}
    ]},
    {"smiles": "O=NO", "note": "[Sodium Nitrite, Sodium nitrite, reference compound]", "values": [
      {"measurement": "aerobic plate count (APC)", "setting": "[1]; 156 ppm sodium nitrite, Day 1", "value": "3.08 Log/Colony Forming Units (CFU)/g"},
      {"measurement": "aerobic plate count (APC)", "setting": "[1]; 156 ppm sodium nitrite, Day 7", "value": "3.98 Log/Colony Forming Units (CFU)/g"},
      {"measurement": "aerobic plate count (APC)", "setting": "[1]; 156 ppm sodium nitrite, Day 14", "value": "3.53 Log/Colony Forming Units (CFU)/g"},
      {"measurement": "aerobic plate count (APC)", "setting": "[1]; 156 ppm sodium nitrite, Day 28", "value": "4.07 Log/Colony Forming Units (CFU)/g"},
      {"measurement": "TBA values (indicator of lipid oxidation)", "setting": "156 ppm sodium nitrite, Day 1", "value": 0.456},
      {"measurement": "TBA values (indicator of lipid oxidation)", "setting": "156 ppm sodium nitrite, Day 7", "value": 0.659},
      {"measurement": "TBA values (indicator of lipid oxidation)", "setting": "156 ppm sodium nitrite, Day 14", "value": 0.701},
      {"measurement": "TBA values (indicator of lipid oxidation)", "setting": "156 ppm sodium nitrite, Day 28", "value": 0.860}
    ]}
  ]
}
